These are yes or no findings as the source states them, for the method shown. For part of these data: Binding seen in cells or lysates may run through a third protein. Some binding calls cover weakened binding; strength is not graded here.
Key:
[1] = biological target: endogenous KDM8 (human (endogenous in MCF7)) (UniProt Q8N371); assay: co-IP; MCF7 cells transfected with HA-PKM2 (wild-type or variant); IP of endogenous KDM8 with homemade rabbit anti-KDM8; Western blotting
Flag-tagged KDM8 = Flag-tagged KDM8 (UniProt Q8N371); assay: co-IP; reciprocal: MCF7 cells co-transfected with HA-PKM2 (wild-type or variant) and Flag-KDM8; IP with anti-Flag, protein A/G magnetic beads, 4 °C overnight; Western blotting
HA-tagged PKM2 G415R = HA-tagged PKM2 G415R (UniProt P14618); assay: co-IP; MCF7 cells co-transfected with HA-PKM2 (wild-type or variant) and Flag-KDM8; IP with anti-HA, protein A/G magnetic beads, 4 °C overnight; IP lysis buffer 50 mM Tris-HCl pH 7.4, 150 mM NaCl, 0.5% NP-40; Western blotting
HA-tagged PKM2 H391Y = HA-tagged PKM2 H391Y (UniProt P14618); assay: as above
HA-tagged PKM2 R399E = HA-tagged PKM2 R399E (UniProt P14618); assay: as above
HA-tagged PKM2 wild-type = HA-tagged PKM2 wild-type (UniProt P14618); assay: as above
GST-tagged KDM8 = GST-tagged KDM8 (UniProt Q8N371); assay: pull-down; His-PKM2 (2 uM) with GST-KDM8 (1 uM) or GST (1 uM) on Glutathione Sepharose; 40 mM Tris, 100 mM NaCl, 0.5% NP-40, pH 8.0; 2 h, 4 °C; Coomassie and anti-His Western blotting; both purified

The chains behind the UniProt entries cited, without tags or fusion partners. Where a name states a change or a piece, a line headed by the entry shows the natural chain unless it says otherwise.
UniProt Q8N371: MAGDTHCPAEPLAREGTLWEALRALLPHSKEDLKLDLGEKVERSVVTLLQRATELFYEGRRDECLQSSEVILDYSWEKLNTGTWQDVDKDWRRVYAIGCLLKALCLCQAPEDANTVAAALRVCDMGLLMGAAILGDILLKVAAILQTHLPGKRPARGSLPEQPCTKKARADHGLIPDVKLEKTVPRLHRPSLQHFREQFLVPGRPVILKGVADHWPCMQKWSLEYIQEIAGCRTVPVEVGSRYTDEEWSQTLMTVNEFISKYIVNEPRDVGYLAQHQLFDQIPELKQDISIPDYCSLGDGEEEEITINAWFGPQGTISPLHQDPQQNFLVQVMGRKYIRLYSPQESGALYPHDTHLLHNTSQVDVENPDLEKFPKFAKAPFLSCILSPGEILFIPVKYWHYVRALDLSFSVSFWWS
UniProt P14618: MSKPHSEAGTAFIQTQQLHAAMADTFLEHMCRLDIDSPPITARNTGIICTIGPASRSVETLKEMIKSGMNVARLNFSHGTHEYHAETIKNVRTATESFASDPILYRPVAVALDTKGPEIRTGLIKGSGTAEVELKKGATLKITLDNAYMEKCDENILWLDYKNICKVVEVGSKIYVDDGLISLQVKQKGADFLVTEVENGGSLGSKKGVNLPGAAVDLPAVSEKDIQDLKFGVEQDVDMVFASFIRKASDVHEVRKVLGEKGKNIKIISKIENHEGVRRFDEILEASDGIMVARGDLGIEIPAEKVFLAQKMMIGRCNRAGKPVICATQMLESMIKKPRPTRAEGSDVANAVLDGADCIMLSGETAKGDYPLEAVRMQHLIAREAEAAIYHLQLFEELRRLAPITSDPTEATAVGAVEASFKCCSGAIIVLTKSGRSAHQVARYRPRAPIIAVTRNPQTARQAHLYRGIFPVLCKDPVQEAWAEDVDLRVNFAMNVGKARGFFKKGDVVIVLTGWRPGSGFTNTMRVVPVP

“HA-tagged PKM2 H391Y (from UniProt P14618 1-531) (enzyme)” was tested, and the binding [1] was “binds” and the binding (Flag-tagged KDM8) was “binds”.

In the case of “HA-tagged PKM2 R399E (from UniProt P14618 1-531) (enzyme)”, the binding [1] is reported as “binds” and the binding (Flag-tagged KDM8) is reported as “binds”.

“Flag-tagged KDM8 (from UniProt Q8N371 1-416) (enzyme)” was tested, and the binding (HA-tagged PKM2 G415R) was “binds”, the binding (HA-tagged PKM2 H391Y) was “binds” and the binding (HA-tagged PKM2 R399E) was “binds”. The binding (HA-tagged PKM2 wild-type) was “binds”.

“His-tagged PKM2 R399E (from UniProt P14618 1-531) (enzyme)” was tested, and the binding (GST-tagged KDM8) was “binds”.

“HA-tagged PKM2 wild-type (from UniProt P14618 1-531) (enzyme)” was tested, and the binding [1] was “binds” and the binding (Flag-tagged KDM8) was “binds”.

“His-tagged PKM2 H391Y (from UniProt P14618 1-531) (enzyme)” was tested, and the binding (GST-tagged KDM8) was “binds”.

“His-tagged PKM2 wild-type (from UniProt P14618 1-531) (enzyme)” was tested, and the binding (GST-tagged KDM8) was “binds”.

With “HA-tagged PKM2 G415R (from UniProt P14618 1-531) (enzyme)” the binding [1] was “binds” and the binding (Flag-tagged KDM8) was “binds”.

Source: paper PMC6420622
